{"source": "PubChem BioAssay AID504784 (Drosophila RNAi Screening Center, 2011)", "aim": "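Genome-wide knock-down for genes giving too much or too little stored lipid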 (primary screen)", "system": "Drosophila Kc167 embryonic cells", "knock-down reagent": "long dsRNA against Drosophila genes, about 250 ng dsRNA per well", "timing": "4 days", "conditions": "cells fed 400 µM oleic acid bound to BSA", "measured": "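Microscope images give a droplet-to-nucleus area ratio, taken as log and converted to a screen-wide B-score; higher values mean greater lipid storage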", "reading the numbers": "droplet/nuclear area B-score: higher = more stored lipid (overstorage)", "note": "The deposit covers about 17,000 reagents; below is an unselected part of those that have a named target and a result. 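Each column is one replicate's B-score; the combined score over replicates was not deposited, so single values may mislead.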 Further read-outs or replicates are left out here."}
{"Gene":"CG14327","DRSC id":"DRSC14806","droplet/nuclear area B-score, replicate 1":-0.0687}
{"Gene":"CG6216","DRSC id":"DRSC10606","droplet/nuclear area B-score, replicate 1":0.286}
{"Gene":"Cpr47Eb (Cuticular protein 47Eb)","DRSC id":"DRSC06345","droplet/nuclear area B-score, replicate 1":-0.053}
{"Gene":"smo (smoothened)","DRSC id":"DRSC00837","droplet/nuclear area B-score, replicate 1":0.041}
{"Gene":"Patronin","DRSC id":"DRSC06756","droplet/nuclear area B-score, replicate 1":-0.344}
{"Gene":"Patronin","DRSC id":"DRSC06757","droplet/nuclear area B-score, replicate 1":-1.22}
{"Gene":"Patronin","DRSC id":"DRSC06994","droplet/nuclear area B-score, replicate 1":-0.194}
{"Gene":"Coq5 (Coenzyme Q5)","DRSC id":"DRSC19849","droplet/nuclear area B-score, replicate 1":-0.882}
{"Gene":"Coq5 (Coenzyme Q5)","DRSC id":"DRSC21371","droplet/nuclear area B-score, replicate 1":-2}
{"Gene":"Dcr-1 (Dicer-1)","DRSC id":"DRSC15646","droplet/nuclear area B-score, replicate 1":0.731}
{"Gene":"Argk2 (Arginine kinase 2)","DRSC id":"DRSC10483","droplet/nuclear area B-score, replicate 1":0.485}
{"Gene":"Argk2 (Arginine kinase 2)","DRSC id":"DRSC23349","droplet/nuclear area B-score, replicate 1":-1}
{"Gene":"CG1637","DRSC id":"DRSC18865","droplet/nuclear area B-score, replicate 1":0.177}
{"Gene":"CG1637","DRSC id":"DRSC19748","droplet/nuclear area B-score, replicate 1":0.575}
{"Gene":"CG1637","DRSC id":"DRSC19749","droplet/nuclear area B-score, replicate 1":0.226}
{"Gene":"Tsf1 (Transferrin 1)","DRSC id":"DRSC20296","droplet/nuclear area B-score, replicate 1":-0.46}
{"Gene":"CG8950","DRSC id":"DRSC07300","droplet/nuclear area B-score, replicate 1":0.104}
{"Gene":"CG42514","DRSC id":"DRSC10428","droplet/nuclear area B-score, replicate 1":-3.23}
{"Gene":"side-VIII (sidestep VIII)","DRSC id":"DRSC05880","droplet/nuclear area B-score, replicate 1":-0.00246}
{"Gene":"side-VIII (sidestep VIII)","DRSC id":"DRSC05883","droplet/nuclear area B-score, replicate 1":-0.659}
{"Gene":"side-VIII (sidestep VIII)","DRSC id":"DRSC06157","droplet/nuclear area B-score, replicate 1":1.22}
{"Gene":"side-VIII (sidestep VIII)","DRSC id":"DRSC23187","droplet/nuclear area B-score, replicate 1":-0.006}
{"Gene":"ATPsynG (ATP synthase, subunit G)","DRSC id":"DRSC02928","droplet/nuclear area B-score, replicate 1":2.46}
{"Gene":"Bro","DRSC id":"DRSC08149","droplet/nuclear area B-score, replicate 1":-0.127}
{"Gene":"Ir64a (Ionotropic receptor 64a)","DRSC id":"DRSC09759","droplet/nuclear area B-score, replicate 1":0.431}
{"Gene":"Ir64a (Ionotropic receptor 64a)","DRSC id":"DRSC09760","droplet/nuclear area B-score, replicate 1":-0.58}
{"Gene":"Graf (GTPase regulator associated with FAK)","DRSC id":"DRSC20131","droplet/nuclear area B-score, replicate 1":0.00895}
{"Gene":"GstT3 (Glutathione S transferase T3)","DRSC id":"DRSC20541","droplet/nuclear area B-score, replicate 1":0.442}
{"Gene":"dachs","DRSC id":"DRSC02072","droplet/nuclear area B-score, replicate 1":-4.68}
{"Gene":"dachs","DRSC id":"DRSC02191","droplet/nuclear area B-score, replicate 1":1.38}
{"Gene":"SmydA-1 (SET and MYND domain containing, arthropod-specific, member 1)","DRSC id":"DRSC07200","droplet/nuclear area B-score, replicate 1":0.457}
{"Gene":"mRpL28 (mitochondrial ribosomal protein L28)","DRSC id":"DRSC02724","droplet/nuclear area B-score, replicate 1":1.14}
{"Gene":"CG2765","DRSC id":"DRSC04315","droplet/nuclear area B-score, replicate 1":-0.158}
{"Gene":"Rox8","DRSC id":"DRSC16829","droplet/nuclear area B-score, replicate 1":-0.0214}
{"Gene":"Opbp (Optix-binding protein)","DRSC id":"DRSC04966","droplet/nuclear area B-score, replicate 1":-0.286}
{"Gene":"CG13359","DRSC id":"DRSC18539","droplet/nuclear area B-score, replicate 1":0.897}
{"Gene":"Mcm2 (Minichromosome maintenance 2)","DRSC id":"DRSC16734","droplet/nuclear area B-score, replicate 1":0.035}
{"Gene":"Spf45","DRSC id":"DRSC03826","droplet/nuclear area B-score, replicate 1":-0.0887}
{"Gene":"Pask (PAS kinase)","DRSC id":"DRSC04337","droplet/nuclear area B-score, replicate 1":0.834}
{"Gene":"CG14417","DRSC id":"DRSC18638","droplet/nuclear area B-score, replicate 1":-0.792}

A run of entries taken from the entries so far, for reference:
{"Gene":"Cpr47Eb (Cuticular protein 47Eb)","DRSC id":"DRSC06345","droplet/nuclear area B-score, replicate 1":-0.053}
{"Gene":"smo (smoothened)","DRSC id":"DRSC00837","droplet/nuclear area B-score, replicate 1":0.041}
{"Gene":"Patronin","DRSC id":"DRSC06756","droplet/nuclear area B-score, replicate 1":-0.344}
{"Gene":"Patronin","DRSC id":"DRSC06757","droplet/nuclear area B-score, replicate 1":-1.22}
{"Gene":"Patronin","DRSC id":"DRSC06994","droplet/nuclear area B-score, replicate 1":-0.194}
